{
  "source": "the supplement of paper PMC9015667",
  "note": "Where a name gives a salt, the structure may show the parent alone. The list shows a part of the results. Many values rest on one well or one pass, so single values are uncertain.",
  "data": [
    {"tested_on": "M249R (matched melanoma line resistant to BRAF inhibitors)", "assay": "reduction in cell viability relative to untreated/vehicle; higher = more growth inhibition", "conditions": "200 nM; 72 h", "units": {"reduction in cell viability": "%"}, "values": [
      {"smiles": "C=CCNC1=C2C[C@@H](C)C[C@H](OC)[C@H](O)[C@@H](C)/C=C(\\C)[C@H](OC(N)=O)[C@@H](OC)/C=C\\C=C(/C)C(=O)NC(=CC1=O)C2=O", "note": "[Tanespimycin]", "reduction in cell viability": "< 0"},
      {"smiles": "CCCS(=O)(=O)Nc1ccc(F)c(C(=O)c2c[nH]c3ncc(-c4ccc(Cl)cc4)cc23)c1F", "note": "[Vemurafenib (PLX4032, RG7204)]", "reduction in cell viability": "< 0"},
      {"smiles": "Cc1cn2c(-c3cn[nH]c3)cnc2c(Nc2ccc(C(=O)N3CCNCC3)cc2F)n1", "reduction in cell viability": "< 0"},
      {"smiles": "CCc1cc(/C(C)=N/OCc2ccc(C3CCCCC3)c(C(F)(F)F)c2)ccc1CN1CC(C(=O)O)C1", "reduction in cell viability": "< 0"},
      {"smiles": "CCn1cc(C(=O)O)c(=O)c2cc(F)c(N3CCNC(C)C3)c(F)c21", "note": "(centres undefined) [Lomefloxacin hydrochloride]", "reduction in cell viability": "< 0"},
      {"smiles": "Cc1c(CN2CCN(C(=O)[C@H](C)O)CC2)sc2c(N3CCOCC3)nc(-c3cnc(N)nc3)nc12", "reduction in cell viability": 42.8},
      {"smiles": "N=C(N)c1ccc(OCCCCCOc2ccc(C(=N)N)cc2)cc1", "note": "[Pentamidine isethionate]", "reduction in cell viability": "< 0"},
      {"smiles": "CC(S)C(=O)NCC(=O)O", "note": "(centres undefined) [Tiopronin]", "reduction in cell viability": "< 0"},
      {"smiles": "Nc1nc2[nH]cnc2c(=S)[nH]1", "note": "[Tioguanine]", "reduction in cell viability": 24.7},
      {"smiles": "O=c1c(O)c(-c2cc(O)c(O)c(O)c2)oc2cc(O)cc(O)c12", "note": "[Myricetin]", "reduction in cell viability": "< 0"},
      {"smiles": "COc1ccccc1N1CCN(CC(O)COc2cccc3ccccc23)CC1", "note": "(centres undefined) [Naftopidil]", "reduction in cell viability": "< 0"},
      {"smiles": "CN1CC[C@H](c2c(O)cc(O)c3c(=O)cc(-c4ccccc4Cl)oc23)[C@H](O)C1", "note": "[Flavopiridol]", "reduction in cell viability": 89.8},
      {"smiles": "COc1cc(OC)cc(-c2ccc3ncc4ccc(=O)n(-c5ccc(N6CCNCC6)c(C(F)(F)F)c5)c4c3c2)c1", "reduction in cell viability": 11.9},
      {"smiles": "O=C(O)C[C@H](O)C[C@H](O)/C=C/c1c(C2CC2)nc2ccccc2c1-c1ccc(F)cc1", "note": "[Pitavastatin calcium]", "reduction in cell viability": "< 0"},
      {"smiles": "C=C1/C(=C\\C=C2/CCC[C@]3(C)[C@@H]([C@H](C)/C=C/C=C/C(O)(CC)CC)CC[C@@H]23)C[C@@H](O)C[C@@H]1O", "note": "[Seocalcitol]", "reduction in cell viability": "< 0"},
      {"smiles": "CCOc1cc2ncc(C#N)c(Nc3ccc(F)c(Cl)c3)c2cc1NC(=O)/C=C/CN(C)C", "note": "[Pelitinib]", "reduction in cell viability": 26.9},
      {"smiles": "Cc1cccc(-c2[nH]ncc2-c2ccc3ncccc3n2)n1", "reduction in cell viability": "< 0"},
      {"smiles": "CCC(=O)NCC[C@@H]1CCc2ccc3c(c21)CCO3", "note": "[Ramelteon]", "reduction in cell viability": "< 0"},
      {"smiles": "C[C@H](Cc1cc2c(c(C(N)=O)c1)N(CCCO)CC2)NCCOc1ccccc1OCC(F)(F)F", "note": "[Silodosin]", "reduction in cell viability": "< 0"},
      {"smiles": "Nc1ccc(C(=O)Nc2cccc(-c3nc(N4CCOCC4)c4oc5ncccc5c4n3)c2)cn1", "reduction in cell viability": "< 0"},
      {"smiles": "O=C(O)c1nc(=O)[nH]c(=O)[nH]1", "note": "[Oteracil potassium]", "reduction in cell viability": "< 0"},
      {"smiles": "Cc1cn([C@H]2C[C@H](N=[N+]=[N-])[C@@H](CO)O2)c(=O)[nH]c1=O", "note": "[Zidovudine]", "reduction in cell viability": "< 0"},
      {"smiles": "Cc1cc2cc3c(C)cc(=O)oc3c(C)c2o1", "note": "[Trioxsalen]", "reduction in cell viability": "< 0"},
      {"smiles": "CCCCCCNC(=O)n1cc(F)c(=O)[nH]c1=O", "note": "[Carmofur]", "reduction in cell viability": "< 0"},
      {"smiles": "OC[C@H]1O[C@@H](n2cnc3c2N=CNC[C@H]3O)C[C@@H]1O", "note": "[Pentostatin]", "reduction in cell viability": "< 0"},
      {"smiles": "N[C@@H](Cc1cc(I)c(Oc2cc(I)c(O)c(I)c2)c(I)c1)C(=O)O", "note": "[L-Thyroxine]", "reduction in cell viability": "< 0"},
      {"smiles": "CCCCCCCCCCCCCCCCCCOP(=O)([O-])OC1CC[N+](C)(C)CC1", "note": "[Perifosine]", "reduction in cell viability": "< 0"},
      {"smiles": "CN1C(=O)C[C@@H](C(=O)N[C@@H](Cc2c[nH]cn2)C(=O)N2CCC[C@H]2C(N)=O)NC1=O", "note": "[Taltirelin]", "reduction in cell viability": 5.26},
      {"smiles": "O=C(NC[C@H](O)CO)c1ccncc1Nc1ccc(I)cc1F", "note": "[Pimasertib]", "reduction in cell viability": 46.4},
      {"smiles": "CC(C)C[C@@H](C=O)NC(=O)[C@H](CC(C)C)NC(=O)[C@H](CC(C)C)NC(=O)OCc1ccccc1", "reduction in cell viability": 91.6},
      {"smiles": "NC(=O)N1c2ccccc2CC(=O)c2ccccc21", "note": "[Oxcarbazepine]", "reduction in cell viability": "< 0"},
      {"smiles": "O=C1NC(=O)/C(=C/c2ccc3nccc(-c4ccncc4)c3c2)S1", "reduction in cell viability": "< 0"},
      {"smiles": "NC(=O)c1ccc2[nH]ccc2c1", "reduction in cell viability": "< 0"},
      {"smiles": "C[C@H]1[C@H](NC(=O)/C(=N\\OC(C)(C)C(=O)O)c2csc(N)n2)C(=O)N1S(=O)(=O)O", "note": "[Aztreonam]", "reduction in cell viability": "< 0"},
      {"smiles": "CO[C@@H]1[C@@H](OC(N)=O)[C@@H](O)[C@H](Oc2ccc3c(O)c(NC(=O)c4ccc(O)c(CC=C(C)C)c4)c(=O)oc3c2C)OC1(C)C", "note": "[Novobiocin sodium]", "reduction in cell viability": "< 0"},
      {"smiles": "C[C@@H]1CC(=O)NN=C1c1ccc(NN=C(C#N)C#N)cc1", "note": "[Levosimendan]", "reduction in cell viability": 10.1},
      {"smiles": "Nc1cccc(S(=O)(=O)N2CCCN(S(=O)(=O)c3ccc4c(c3)OCCO4)CC2)c1", "reduction in cell viability": "< 0"},
      {"smiles": "CCOC(=O)N1CCN(/[N+]([O-])=N/Oc2ccc([N+](=O)[O-])cc2[N+](=O)[O-])CC1", "reduction in cell viability": "< 0"},
      {"smiles": "CC(C)NC[C@@H](C(=O)N1CCN(c2ncnc3c2[C@H](C)C[C@H]3O)CC1)c1ccc(Cl)cc1", "reduction in cell viability": "< 0"}
    ]}
  ]
}
